In publication PMC3152785 one finds binding data, which are given here for 3 molecules.

The chains behind the UniProt entries cited, without tags or fusion partners.
UniProt P03254: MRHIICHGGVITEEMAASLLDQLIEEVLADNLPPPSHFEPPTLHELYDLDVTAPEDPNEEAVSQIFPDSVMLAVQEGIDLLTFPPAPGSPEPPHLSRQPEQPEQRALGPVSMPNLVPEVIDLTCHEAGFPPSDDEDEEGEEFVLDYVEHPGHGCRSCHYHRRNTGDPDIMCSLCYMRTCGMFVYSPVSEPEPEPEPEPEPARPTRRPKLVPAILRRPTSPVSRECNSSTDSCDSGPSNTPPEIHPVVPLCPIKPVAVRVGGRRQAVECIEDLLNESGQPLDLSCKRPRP
UniProt P03129: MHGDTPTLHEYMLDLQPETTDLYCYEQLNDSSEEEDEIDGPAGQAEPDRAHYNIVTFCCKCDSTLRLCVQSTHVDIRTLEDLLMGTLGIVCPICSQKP

What all share (test): pull-down; 0.5 mg of precleared HeLa cell lysate with Myc-tagged Spry proteins incubated with 40 μg of GST-fusion protein for 1 h at 4°C, Glutathione Sepharose 4B; bound proteins by SDS-PAGE and anti-Myc immunoblot; only the target purified
The target in test [1] is GST-Ad12 E1A13S fusion protein (adenovirus type 12 E1A 266R protein, translated from the 13S mRNA) (Adenovirus serotype 12 (Ad12)) (UniProt P03259).
Test [2] has as its target GST-Ad2-E1A13S fusion protein (E1A13S of the non-oncogenic adenovirus serotype 2) (Adenovirus serotype 2 (Ad2)) (UniProt P03254).
In test [3] the target is GST-ΔNE1A13S (Ad12 E1A13S with a deletion of the first 29 N-terminal amino acids) (Adenovirus serotype 12 (Ad12)) (UniProt P03259).
For test [4], the target named is GST-HPV16-E7 fusion protein (E7 oncoprotein of Human papillomavirus type 16) (Human papillomavirus type 16 (HPV16)) (UniProt P03129).

No constants are given. Whether binding was seen depends on the method and setting. In cells and extracts the contact can be indirect. Some entries that bind do so weakly or less than the wild type. Tags and fused reporters may be left off the sequences shown.

B1: Myc-tagged mouse Sprouty1 (Spry1) (protein, UniProt Q9QXV9 1-313)
chain: MDSPSQHGSHTSLVVIQPPAVEGRQRLDYDRDTQPATILSLDQIKAIRGSNEYTEGPSVARRPAPRTAPRPEKQERTHEIIPANVNSSYEHRPASHPGNARGSVLSRSTSTGSAASSGSSSSVSSEQGLLGRSPPTRPIPGHRSDRVIRTQPKQLLVEDLKASLKEDPTQHKFICEQCGKCKCGECTAPRALPSCLACDRQCLCSAESMVEYGTCMCLVKGIFYHCSNDDDGGSYSDNPCSCSQSHCCSRYLCMGALSLCLPCLLCYPPAKGCLKLCRGCYDWTHRPGCRCRNSNTVYCKLESCPSRAQGKLS
Turning to B1, the binding entry in test [1] is given as “binds”; in test [2], “binds”; in test [3], “binds weakly”; in test [4] it was “binds”.

B2: Myc-tagged mouse Sprouty2 (Spry2) (protein, UniProt Q9QXV8 1-315)
chain: MEARAQSGNGSQPLLQTAHDSGRQRGEPDPRDALTQQVHVLSLDQIRAIRNTNEYTEGPTVVPRPGLKPAPRPSTQHKHERLHGLPEHRQPPRLQPSQVHSSRAPLSRSISTVSSGSRSSTRTSTSSSSSEQRLLGPSFSHGPAAADGIIRVQPKSELKPGDVKPLSKDDLGLHAYRCEDCGKCKCKECTYPRPLPSDWICDKQCLCSAQNVIDYGTCVCCVKGLFYHCSNDDEDNCADNPCSCSQSHCCTRWSAMGVMSLFLPCLWCYLPAKGCLKLCQGCYDRVNRPGCRCKNSNTVCCKVPTVPPRNFEKPT
Take B2: the binding result in test [1] is reported as “binds”.

B3: Myc-tagged mouse Sprouty4 (Spry4) (protein, UniProt Q9WTP2 1-300)
chain: MEPPVPQSSVPVNPSSVMVQPLLDSRAPHSRLQHPLTILPIDQMKTSHVENDYIDNPSLAPATGPKRPRGGPPELAPTPARCDQDITHHWISFSGRPSSVSSSSSTSSDQRLLDHMAPPPVAEQASPRAVRLQPKVVHCKPLDLKGPTAPPELDKHFLLCEACGKCKCKECASPRTLPSCWVCNQECLCSAQTLVNYGTCMCLVQGIFYHCTNEDDEGSCADHPCSCSGSNCCARWSFMGALSVVLPCLLCYLPATGCVKLAQRGYDRLRRPGCRCKHTNSVICKAASGDTKTSRSDKPF
Consider B3, for which the binding entry in test [1] was “binds”.
